Laboratory results taken from PubChem BioAssay AID720504 (National Center for Advancing Translational Sciences (NCATS), 2013).
The whole screen tested about 360,000 compounds, of which about 10,000 (2.8%) were called active. This list was built around the results that the source calls inconclusive (neither active nor inactive); the mix of calls is not that of the screen. Calls follow the shape of the dose curve; as a rule, active = well fitted inhibition curve with a large enough effect; inconclusive = small, poorly fitted or top-dose-only effect; inactive = flat fitted curve, though single readings scatter. Potencies of inconclusive entries are doubtful fits and often do not repeat.

Amino acid sequences for entries named in this document (tags omitted).
UniProt P53350, whole entry, looked up: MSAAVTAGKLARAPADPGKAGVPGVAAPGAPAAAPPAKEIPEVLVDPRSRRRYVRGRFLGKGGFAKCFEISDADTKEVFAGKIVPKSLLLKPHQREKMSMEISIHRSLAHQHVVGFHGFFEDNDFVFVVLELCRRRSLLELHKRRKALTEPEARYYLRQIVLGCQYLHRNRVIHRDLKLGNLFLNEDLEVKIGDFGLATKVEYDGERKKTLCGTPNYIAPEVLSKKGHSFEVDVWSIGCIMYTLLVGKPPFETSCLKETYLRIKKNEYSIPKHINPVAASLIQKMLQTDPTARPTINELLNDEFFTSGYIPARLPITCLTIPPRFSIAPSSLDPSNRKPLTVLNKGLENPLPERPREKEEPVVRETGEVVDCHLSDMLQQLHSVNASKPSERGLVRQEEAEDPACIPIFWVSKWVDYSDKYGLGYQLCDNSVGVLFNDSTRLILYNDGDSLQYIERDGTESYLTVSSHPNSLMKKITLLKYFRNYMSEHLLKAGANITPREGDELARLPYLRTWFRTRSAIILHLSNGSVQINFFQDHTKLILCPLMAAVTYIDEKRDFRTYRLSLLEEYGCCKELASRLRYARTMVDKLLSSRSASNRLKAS

molecular target: Serine/threonine-protein kinase PLK1 (Homo sapiens) (UniProt P53350); experiment: qHTS for Inhibitors of PLK1-PDB (polo-like kinase 1 - polo-box domain): Primary Screen; conditions: Plk1 PBD binding of FITC phosphopeptide, fluorescence polarization; also: nearly all actives have a fitted effect of over 65% in size; as to max response, negative = inhibition: series mostly up to about 57 µM
% is scaled to controls: 0 for no effect and ±100 for the full control effect; potency is read from the fitted curve at half-maximal effect.

Question: For `COc1ccccc1-n1c(SCC(=O)NCc2ccc3c(c2)OCO3)nc2cc([N+](=O)[O-])ccc21`, which Potency is on record?
Answer: inconclusive: 6.7 µM [inhibitor, partial curve]

Question: `NNC(=O)c1cc(O)c(O)c(O)c1` was tested. Which Potency did it give?
Answer: inconclusive: 26.7 µM [inhibitor, single point]

Question: Which max response, negative = inhibition does the source give for `C[N+]1(CCCOC(=O)C2(c3ccccc3)CCCC2)CCOCC1` here?
Answer: inactive: -6.16%

Question: How did the max response, negative = inhibition turn out when `Cc1ccc2c(c1)N(CC(=O)NCCCN1CCOCC1)C(=O)c1cccnc1O2` was run?
Answer: inconclusive: -30% [inhibitor]

Question: How did the Potency turn out when `O=c1nc(Nc2cccc(Cl)c2)oc2cc(Cl)oc(=O)c12` was run?
Answer: inconclusive: 29.9 µM [inhibitor, partial curve]

Question: With `C=CCOC(=O)c1c(C)nc2cc3c(cc2c1C)OCO3` as the molecule, how does the max response, negative = inhibition read?
Answer: inactive: -7.34%

Question: How did the max response, negative = inhibition turn out when `CC(C)(C)C(=O)c1c(N)[nH]c(C(=O)c2ccccc2)c1-c1ccccc1Br` was run?
Answer: inactive: -14.7%

Question: For `Cn1c2c(c(=O)n(C)c1=O)C(C(F)(F)F)(C(F)(F)F)N=C(CCC1CCCCC1)N2`, which max response, negative = inhibition is on record?
Answer: inactive: -8.64%

Question: `CCN(CC)CCCNC(=O)CNC(=S)N(CCCN1CCOCC1)Cc1cccs1` was tested. Which Potency did it give?
Answer: active: 18.9 µM

Question: Which Potency does the source give for `CN1C(=O)/C(=C\c2cc(N=Nc3ccccc3)ccc2O)SC1=S` here?
Answer: inconclusive: 23.8 µM [inhibitor, partial curve]

Question: Which max response, negative = inhibition does the source give for `COc1cccc(C(=O)NC2CC3CCCC(C2)N3CC(=O)Nc2ccc(N(C)C)cc2)c1` (configuration not stated) here?
Answer: inactive: -5.85%

Question: For `CCCn1c(NC(=S)Nc2ccccc2)nc2ccccc21`, which Potency is on record?
Answer: inconclusive: 26.7 µM [inhibitor, partial curve]

Question: `COc1cc(OC)c2c(-c3ccccc3)cc(=O)oc2c1C(CC(=O)N1CCCC1)c1ccc2c(c1)OCO2` (configuration not stated) was tested. Which max response, negative = inhibition did it give?
Answer: inactive: -12.6%

Question: `CCOC(=O)c1c(N)sc(C(=O)OCCOC)c1C` was tested. Which Potency did it give?
Answer: active: 9.47 µM

Question: `O=C(NC(=S)Nc1c(Cl)ccc2nsnc12)c1ccco1` was tested. Which Potency did it give?
Answer: inconclusive: 26.7 µM [inhibitor, partial curve]

Question: `CC(C)OCCCNC(=O)CN1CCN(Cc2ccccc2Cl)C1=O` was tested. Which Potency did it give?
Answer: active: 3.36 µM

Question: With `O=C(O)c1ccc2c3c(ncnc13)-c1ccccc1C2=O` as the molecule, how does the Potency read?
Answer: inconclusive: 11.9 µM [inhibitor, partial curve]

Question: `O=C(O)CCS(=O)(=O)c1nc(-c2cccs2)cc(C(F)(F)F)n1` was tested. Which Potency did it give?
Answer: inconclusive: 21.2 µM [inhibitor, partial curve]

Question: How did the max response, negative = inhibition turn out when `CCOc1ccc(OCCCCN2CCCC2)cc1` was run?
Answer: inactive: -7.91%

Question: `COc1ccc(N2CCN(C(=O)c3cn(C)c(=O)c4c3c3ccccc3n4C)CC2)cc1` was tested. Which max response, negative = inhibition did it give?
Answer: inactive: -6.56%

Question: `Oc1ccc(CCNc2c3ccccc3nc3ccccc23)cc1O` was tested. Which Potency did it give?
Answer: active: 26.7 µM

Question: With `CC(/C=C/c1ccccc1)=N\NC(N)=S` as the molecule, how does the Potency read?
Answer: inconclusive: 21.2 µM [inhibitor, partial curve]

Question: With `Cc1ccc(C2=CSC3=NCCN23)c(C)c1` as the molecule, how does the Potency read?
Answer: inconclusive: 23.8 µM [inhibitor, partial curve]

Question: `Cc1ccc(OCCn2cc(/C=N/NC(=O)c3ccncc3)c3ccccc32)cc1` was tested. Which Potency did it give?
Answer: active: 15 µM

Question: How did the max response, negative = inhibition turn out when `CCN(C(=O)COC(=O)c1ccc(=O)n(Cc2ccccc2)n1)C1CCS(=O)(=O)C1` (configuration not stated) was run?
Answer: inactive: -4.84%

Question: With `COc1ccc2nc(Nc3sc4c(c3C(N)=O)CCCC4)sc2c1` as the molecule, how does the Potency read?
Answer: inconclusive: 26.7 µM [inhibitor, partial curve]

Question: For `Cc1c(Cc2ccccc2)c(=O)oc2c(C)c(OCC(=O)N[C@@H](Cc3ccccc3)C(=O)O)ccc12`, which Potency is on record?
Answer: inconclusive: 23.8 µM [inhibitor, single point]

Question: How did the max response, negative = inhibition turn out when `COc1ccccc1NC(=O)c1ccccc1NC(=O)c1cc(Cl)ccc1NC(=O)c1ccco1` was run?
Answer: inactive: -4.64%

Question: For `CCn1c(C)nc2cc(-c3nnc(-c4c(-c5ccccc5)noc4C)o3)ccc21`, which max response, negative = inhibition is on record?
Answer: inactive: -0.707%

Question: For `C[C@@H]1CN([C@@H](C)CO)C(=O)c2cc(Br)cnc2O[C@H]1CN(C)C(=O)NC1CCCC1`, which Potency is on record?
Answer: inconclusive: 8.44 µM [inhibitor, single point]

Question: Which max response, negative = inhibition does the source give for `Cc1ccc2c(c1)NC(=O)C(CC(=O)NCCCN1CCc3ccccc3C1)O2` (configuration not stated) here?
Answer: inconclusive: -36.8% [inhibitor]

Question: With `O=c1[nH]c(SCc2ccccc2)nc2c1sc1ccccc12` as the molecule, how does the Potency read?
Answer: inconclusive: 37.7 µM [inhibitor, single point]

Question: For `Cc1nc(S/C(=C/c2ccc(-c3cc(Cl)ccc3C)o2)C(=O)O)n[nH]1`, which Potency is on record?
Answer: inconclusive: 26.7 µM [inhibitor, single point]

Question: For `Cc1ccc([N+](=O)[O-])cc1N=Nc1c(-c2ccc([N+](=O)[O-])cc2)[nH]n(C(N)=S)c1=O`, which Potency is on record?
Answer: inconclusive: 23.8 µM [inhibitor, partial curve]

Question: `CC(C)Sc1nc(-c2ccccc2)cc(=O)[nH]1` was tested. Which Potency did it give?
Answer: inconclusive: 37.7 µM [inhibitor, partial curve]

Question: Which Potency does the source give for `Cc1ccc(Nc2nnc(SCc3ccccc3)s2)cc1` here?
Answer: inconclusive: 33.6 µM [inhibitor, single point]

Question: For `CCOC(=O)C1=CN(Cc2cccc(-c3ccc(F)cc3)c2)S(=O)(=O)N(C)C1C` (configuration not stated), which max response, negative = inhibition is on record?
Answer: inactive: -7.76%

Question: Which max response, negative = inhibition does the source give for `Fc1ccc(COc2ccc(Br)cc2CNCc2ccncc2)cc1` here?
Answer: inactive: -6.14%

Question: How did the Potency turn out when `S=c1[nH]nc(-c2ccc3ccccc3n2)n1-c1ccccc1Cl` was run?
Answer: inconclusive: 26.7 µM [inhibitor, single point]

Question: `Cc1cc(C)cc(N(C(=O)CNC(=O)c2ccco2)C(C(=O)NC2CCCC2)c2ccncc2)c1` (configuration not stated) was tested. Which Potency did it give?
Answer: active: 29.9 µM

Question: For `O=C1C2CC=CCC2C(=O)N1CC1CCCO1` (configuration not stated), which Potency is on record?
Answer: active: 23.8 µM

Question: With `CCOc1cc(C(=O)N/N=C/C2CC=CCC2)cc(OCC)c1OCC` (configuration not stated) as the molecule, how does the max response, negative = inhibition read?
Answer: inactive: 6.83%

Question: With `O=C(Nc1cccc(Cl)c1)c1cc(N=Nc2ccc([N+](=O)[O-])cc2Cl)ccc1O` as the molecule, how does the Potency read?
Answer: inconclusive: 21.2 µM [inhibitor, partial curve]

Question: For `Cc1cc(-n2c(C)cc(C(=O)CSc3ccccn3)c2C)no1`, which Potency is on record?
Answer: active: 16.8 µM

Question: `COc1cccc(NC(=O)CN(C)C(=O)c2c(C)noc2C)c1` was tested. Which max response, negative = inhibition did it give?
Answer: inactive: 3.01%

Question: How did the Potency turn out when `Cc1ccc(N2C(=O)CS(=O)C(c3ccccc3)C2=O)cc1C` (configuration not stated) was run?
Answer: active: 1.5 µM

Question: Which Potency does the source give for `O=C(Nc1nc(-c2ccccn2)cs1)c1cc(Cl)ccc1[N+](=O)[O-]` here?
Answer: active: 9.47 µM
